Test results published in the supplement of paper PMC10689618.
Structures can show the parent of a compound that is named as a salt. ± gives the standard deviation of the averaged measurements. The list shows a part of the results. Single values are uncertain, as repeats are few or missing.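 Primary human fetal astrocytes engulfed labelled rat cortical synaptosomes, measured as a red/green ratio corrected for calcein live-cell signal and scaled to the plate median. Toxicity meant calcein falling over 30%; decreased phagocytosis meant below 70% of median above 5 µM.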

Columns and labels:
Human fetal astrocytes [1] = test: loss of total cells relative to no-compound high-control median (toxicity); higher = more toxic (fewer cells); settings: 24 h
Human fetal astrocytes [2] = test: synaptosome phagocytosis (pHrodo/calcein intensity ratio) relative to plate median of data wells; higher = more phagocytosis; settings: 24 h

SMILES	loss of total cells (Human fetal astrocytes [1]; 1.39 µM)	loss of total cells (Human fetal astrocytes [1]; 2.78 µM)	loss of total cells (Human fetal astrocytes [1]; 5.56 µM)	loss of total cells (Human fetal astrocytes [1]; 11.11 µM)	loss of total cells (Human fetal astrocytes [1]; 22.22 µM)	synaptosome phagocytosis (Human fetal astrocytes [2]; 1.39 µM)	synaptosome phagocytosis (Human fetal astrocytes [2]; 2.78 µM)	synaptosome phagocytosis (Human fetal astrocytes [2]; 5.56 µM)	synaptosome phagocytosis (Human fetal astrocytes [2]; 11.11 µM)	synaptosome phagocytosis (Human fetal astrocytes [2]; 22.22 µM)
CCCCOC(=O)NS(=O)(=O)c1sc(CC(C)C)cc1-c1ccc(Cn2c(CC)nc3c(C)cc(C)nc32)cc1	-1.4%	0.5%	1.4%	-4.8%	21.5%	82.2%	103%	94%	86.7%	70.6%
Brc1c(NC2=NCCN2)ccc2nccnc12	-15.8%	-6.9%	-2.2%	-11.9%	-35.4%	113%	118%	104%	128%	102%
CC(=O)OCC(=O)[C@@]1(O)CC[C@H]2[C@@H]3CCC4=CC(=O)CC[C@]4(C)[C@H]3C(=O)C[C@@]21C [Cortisone 21-acetate]	-5.5%	-4.5%	-1.4%	-13%	7.9%	144%	101%	126%	83.9%	116%
COc1c2c(nc3ccccc13)OC(C(C)(O)CO)C2 (stereo not given) [Dubinidine]	14.6%	-14.5%	-1.6%	-0.4%	1.6%	149%	126%	120%	95.9%	121%
COC(=O)[C@H](NC(=O)c1cc(-c2ccccc2)nc2ccccc12)c1ccccc1	-7.9%	-19.7%	-12.3%	-24.7%	7.2%	90.3%	83.8%	89.2%	113%	104%
CCc1c(C)[nH]c2c1C(=O)C(CN1CCOCC1)CC2 (stereo not given) [Molindone hydrochloride]	-2.4%	3.2%	-0.5%	14.3%	13.1%	107%	106%	128%	114%	127%
NC(Cc1cccc(-c2ccccc2CP(=O)(O)O)c1)C(=O)O (stereo not drawn) [Phenylbenzene-omega-phosphono-alpha-amino acid]	-2.8%	-23.1%	-16.3%	-13.4%	-34.6%	113%	117%	107%	106%	128%
NCC(O)c1ccc(O)c(O)c1 (racemic) [(±)-Norepinephrine (+)bitartrate]	-1.1%	-12%	16.1%	7.6%	13.9%	211%	95.1%	108%	105%	82.4%
CC(=O)NCCc1ccc(O)c(O)c1 [N-Acetyldopamine monohydrate]	0%	-9.6%	-6.9%	-12.1%	13.2%	124%	118%	90.6%	113%	86.8%
N#CC(C#N)=C(N)/C(C#N)=C/c1cc(O)c(O)c(O)c1 [Tyrphostin 51]	5.3%	-23.7%	1.7%	1.9%	-1.6%	87.4%	105%	83.9%	90.5%	124%
CC(C)NC[C@H](O)COc1cccc2[nH]ccc12 [S(-)-Pindolol]	0.3 ± 17%	-3.95 ± 24%	-4.9 ± 18%	-28.3 ± 33%	-24.5 ± 15%	95.5 ± 2.4%	106 ± 5.9%	102 ± 14%	105 ± 24%	108 ± 8.7%
C#CC(N)CCC(=O)O (stereo not given) [gamma-Acetylinic GABA]	-20.2%	-11.1%	0.5%	-8.5%	3.4%	112%	95.7%	90.7%	91.3%	94.7%
NCC(O)(CS(=O)(=O)O)c1ccc(Cl)cc1 (stereo not given) [2-Hydroxysaclofen]	-19.4%	-1.8%	-6.9%	8.5%	19.2%	71.3%	72.9%	83.8%	96.2%	99.5%
Cc1nc(N=Nc2ccc(C(=O)O)cc2)c(COP(=O)(O)O)c(C=O)c1O	-16.6%	-7.7%	8.9%	2.9%	-18.7%	75.3%	54%	96.7%	122%	110%
Cn1c(=O)c2nc[nH]c2n(C)c1=O [Theophylline]	-7.8%	-3.3%	-3.9%	5%	-18.1%	99.1%	104%	110%	104%	92.4%
CCSC(N)=Nc1ccc(C(F)(F)F)cc1 [TFPI hydrochloride]	-17.7%	-30.8%	-9%	-15.7%	-27.2%	118%	123%	104%	93.9%	122%
N#CC(C#N)=C(N)/C(C#N)=C/c1ccc(O)cc1 [Tyrphostin AG 112]	-10.2%	-12.9%	-4.5%	-11.9%	-18.9%	92.9%	102%	101%	110%	83.2%
NCCNC(=O)c1ncsc1-c1cccc(F)c1 [Ro 41-1049 hydrochloride]	1.6%	-6.9%	-19.7%	-17.2%	-6.6%	112%	126%	137%	114%	111%
NCCCCCCNS(=O)(=O)c1cccc2c(Cl)cccc12 [W-7 hydrochloride]	-4%	-1.2%	0.5%	-2.2%	14.7%	85.9%	112%	100%	100%	95.2%
CN(C)CCCCSC(=N)N	-30.7%	-32%	-33.1%	-14.2%	-24.7%	100%	119%	92.4%	90.8%	93.9%

SMILES	loss of total cells (Human fetal astrocytes [1]; 1.39 µM)	loss of total cells (Human fetal astrocytes [1]; 2.78 µM)	loss of total cells (Human fetal astrocytes [1]; 5.56 µM)	loss of total cells (Human fetal astrocytes [1]; 11.11 µM)	loss of total cells (Human fetal astrocytes [1]; 22.22 µM)	synaptosome phagocytosis (Human fetal astrocytes [2]; 1.39 µM)	synaptosome phagocytosis (Human fetal astrocytes [2]; 2.78 µM)	synaptosome phagocytosis (Human fetal astrocytes [2]; 5.56 µM)	synaptosome phagocytosis (Human fetal astrocytes [2]; 11.11 µM)	synaptosome phagocytosis (Human fetal astrocytes [2]; 22.22 µM)
O=C(O)CN(CCOCCOCCN(CC(=O)O)CC(=O)O)CC(=O)O	-11.3%	-15.4%	-9.1%	-28.3%	4%	85.3%	80.4%	116%	95.5%	83.9%
Cc1c(C)c2c(c(C)c1O)CCC(C)(CN1CCN(c3cc(N4CCCC4)nc(N4CCCC4)n3)CC1)O2 (stereo not given)	-32.6%	-29.6%	-0.6%	38.7%	49.4%	90.2%	99.9%	81.4%	11.1%	25.2%
C[C@@H]1C(=O)NC2=Nc3cccc(Cl)c3CN21 [Quazinone]	-7.1%	-9.9%	-4.5%	-5%	-24.7%	97.7%	75.6%	93.3%	73.6%	60.5%
C#CCn1c(=O)c2c(ncn2C)n(C)c1=O [3,7-Dimethyl-I-propargylxanthine]	-0.4%	-14.5%	-4.9%	-15.7%	-2.4%	104%	107%	103%	118%	109%
CN1CCC[C@@H]1CCO[C@](C)(c1ccccc1)c1ccc(Cl)cc1 [Clemastine fumarate]	-13.2%	-1.2%	-11.5%	-7.6%	8.6%	98.7%	83.5%	58.1%	87.1%	65.9%
C[N+](C)(C)CCCCCNCC12CC3CC(CC(C3)C1)C2	-0.4%	-12.8%	-15.6%	-13.9%	-1.6%	121%	114%	102%	90.4%	136%
C[C@H]1O[C@@H](n2cc(F)c(=O)[nH]c2=O)[C@H](O)[C@@H]1O [5-fluoro-5'-deoxyuridine]	2.1%	-12.8%	-4.1%	4.9%	3.2%	104%	122%	102%	115%	143%
N[C@@H](C(=O)N[C@@H]1C(=O)N2C(C(=O)O)=C(Cl)CS[C@H]12)c1ccccc1 [Cefaclor]	-19.4%	-5.7%	11.5%	-25.6%	-0.4%	107%	97.1%	90%	72.3%	111%
CSc1ccc2c(c1)N(CCC1CCCCN1C)c1ccccc1S2 (stereo not given) [Thioridazine hydrochloride]	-23.3%	-3.9%	-1.1%	11.9%	31.3%	101%	59.6%	81.4%	40.6%	29.8%
OC[C@H]1NC[C@H](O)[C@@H](O)[C@@H]1O [1-Deoxynojirimycin hydrochloride]	-3.6 ± 12%	-4.15 ± 2.6%	14.8 ± 22%	17.6 ± 7.4%	6 ± 7.3%	104 ± 19%	129 ± 16%	115 ± 16%	112 ± 11%	125 ± 18%
NC1CCN(c2cccc(Cl)n2)CC1	-13.4%	-20.1%	-17.4%	-8.8%	-12.3%	88.5%	92.1%	101%	115%	125%
CC(N)=NCCC[C@H](N)C(=O)O [L-N5-(1-Iminoethyl)ornithine hydrochloride]	-11.8%	1.4%	8%	-2.9%	6.5%	94.1%	120%	122%	145%	130%
Nc1ncnc2c1ncn2C1OC(C(=O)NC2CC2)C(O)C1O (stereo not given) [5'-(N-Cyclopropyl)carboxamidoadenosine]	1.5%	-8.1%	-18%	-14.8%	-10.2%	121%	62.9%	78.9%	103%	107%
COc1ccc(CC(C)NCC(O)c2ccc(O)c(NC=O)c2)cc1 (stereo not given) [Formoterol]	3.8%	5.1%	23%	-10.3%	-2.4%	112%	102%	92.9%	135%	122%
N[C@@H](CC(=O)O)C(=O)O [L-Aspartic acid]	-12.1%	-11.4%	-17.1%	-13%	4.9%	69.2%	115%	108%	117%	110%
O=C(O)C1CCCN(CCC=C(c2ccccc2)c2ccccc2)C1 (stereo not given)	-13.4%	-24.9%	-2.2%	-12.6%	-6.6%	125%	80%	99.5%	104%	108%
Cn1c(=O)c2[nH]c(-c3ccc(S(=O)(=O)O)cc3)nc2n(C)c1=O [8-(p-Sulfophenyl)theophylline]	-3.3%	-18.9%	-17.1%	-4%	-1.1%	67.6%	103%	121%	117%	112%
CC[N+](CC)(CC)CCOc1ccc(/C=C/c2ccccc2)cc1	-10%	2.3%	10.8%	32.4%	37.4%	97.2%	118%	89.7%	89.1%	56.7%
COc1ccc2c(c1)CCC1C2CCC2(C)C(NCCCCCCN3C(=O)C=CC3=O)CCC12 (stereo not given)	-15.2%	-24.9%	1.1%	-12.6%	-10.7%	107%	126%	103%	96.5%	116%
COc1cc2c(CCNC(C)=O)c[nH]c2cc1Cl [6-Chloromelatonin]	-8.4%	-9.6%	-3.2%	-7.6%	-4.9%	85.5%	94.6%	104%	102%	110%

Quoted at random: three compounds from above, in no set order.
SMILES	loss of total cells (Human fetal astrocytes [1]; 1.39 µM)	loss of total cells (Human fetal astrocytes [1]; 2.78 µM)	loss of total cells (Human fetal astrocytes [1]; 5.56 µM)	loss of total cells (Human fetal astrocytes [1]; 11.11 µM)	loss of total cells (Human fetal astrocytes [1]; 22.22 µM)	synaptosome phagocytosis (Human fetal astrocytes [2]; 1.39 µM)	synaptosome phagocytosis (Human fetal astrocytes [2]; 2.78 µM)	synaptosome phagocytosis (Human fetal astrocytes [2]; 5.56 µM)	synaptosome phagocytosis (Human fetal astrocytes [2]; 11.11 µM)	synaptosome phagocytosis (Human fetal astrocytes [2]; 22.22 µM)
CSc1ccc2c(c1)N(CCC1CCCCN1C)c1ccccc1S2 (stereo not given) [Thioridazine hydrochloride]	-23.3%	-3.9%	-1.1%	11.9%	31.3%	101%	59.6%	81.4%	40.6%	29.8%
C#CCn1c(=O)c2c(ncn2C)n(C)c1=O [3,7-Dimethyl-I-propargylxanthine]	-0.4%	-14.5%	-4.9%	-15.7%	-2.4%	104%	107%	103%	118%	109%
NC1CCN(c2cccc(Cl)n2)CC1	-13.4%	-20.1%	-17.4%	-8.8%	-12.3%	88.5%	92.1%	101%	115%	125%
